The results in this text go back to paper PMC8194061.

Sequences of proteins named here, by UniProt entry; tags and fusion partners are left off.
UniProt Q05BC3: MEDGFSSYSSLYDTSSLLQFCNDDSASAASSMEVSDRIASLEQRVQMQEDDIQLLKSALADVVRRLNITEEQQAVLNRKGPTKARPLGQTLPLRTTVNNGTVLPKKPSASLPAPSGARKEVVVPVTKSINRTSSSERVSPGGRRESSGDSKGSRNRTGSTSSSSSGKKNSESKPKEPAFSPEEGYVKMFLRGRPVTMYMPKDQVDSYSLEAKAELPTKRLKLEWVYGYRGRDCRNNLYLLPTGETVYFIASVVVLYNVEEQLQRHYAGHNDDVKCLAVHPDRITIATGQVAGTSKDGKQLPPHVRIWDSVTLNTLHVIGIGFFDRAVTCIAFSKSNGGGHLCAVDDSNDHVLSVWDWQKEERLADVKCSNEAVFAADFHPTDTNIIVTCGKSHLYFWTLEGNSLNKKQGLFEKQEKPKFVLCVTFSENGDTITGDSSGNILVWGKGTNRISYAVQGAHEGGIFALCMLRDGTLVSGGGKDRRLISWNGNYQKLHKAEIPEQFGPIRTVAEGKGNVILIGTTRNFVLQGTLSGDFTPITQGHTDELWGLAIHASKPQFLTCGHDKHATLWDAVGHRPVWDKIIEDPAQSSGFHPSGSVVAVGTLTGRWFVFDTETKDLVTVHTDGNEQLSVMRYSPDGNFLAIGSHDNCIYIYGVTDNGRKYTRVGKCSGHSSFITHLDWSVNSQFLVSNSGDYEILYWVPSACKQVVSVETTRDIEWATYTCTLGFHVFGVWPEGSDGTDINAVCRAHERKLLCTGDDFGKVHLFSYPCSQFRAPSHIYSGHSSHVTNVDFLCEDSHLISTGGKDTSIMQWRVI
UniProt Q9Y266: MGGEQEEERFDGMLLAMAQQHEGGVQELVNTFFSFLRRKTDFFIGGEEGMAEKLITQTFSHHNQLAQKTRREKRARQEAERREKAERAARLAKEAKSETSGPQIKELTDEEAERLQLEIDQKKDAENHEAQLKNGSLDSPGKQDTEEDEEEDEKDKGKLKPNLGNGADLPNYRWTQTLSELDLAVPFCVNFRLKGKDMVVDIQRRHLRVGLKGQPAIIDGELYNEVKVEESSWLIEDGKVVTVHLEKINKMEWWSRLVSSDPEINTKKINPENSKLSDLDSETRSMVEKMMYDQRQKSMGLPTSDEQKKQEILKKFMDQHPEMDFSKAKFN
UniProt O35685: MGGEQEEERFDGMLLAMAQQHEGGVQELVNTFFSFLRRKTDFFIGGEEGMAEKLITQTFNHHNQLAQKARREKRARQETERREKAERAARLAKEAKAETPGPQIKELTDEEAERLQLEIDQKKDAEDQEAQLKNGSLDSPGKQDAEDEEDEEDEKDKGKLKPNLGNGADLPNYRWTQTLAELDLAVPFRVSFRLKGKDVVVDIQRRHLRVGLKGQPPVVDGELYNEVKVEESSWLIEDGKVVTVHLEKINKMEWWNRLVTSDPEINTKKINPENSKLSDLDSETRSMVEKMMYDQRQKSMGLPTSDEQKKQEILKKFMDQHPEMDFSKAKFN

Results are given in words; binding and its absence hold for the method and conditions named. Binding seen in cells or lysates may run through a third protein. Some results given as binding are weak or reduced against the parent protein; the word gives no strength.

For assay [1], the target named is EML1-3DDK fusion protein (echinoderm microtubule associated protein like 1, mouse) (mouse) (UniProt Q05BC3). The experiment in a line: co-IP; EML1-IP product from HEK293 cells expressing EML1-3DDK, blotted for NUDC and EML4.
Assay [2] shares this target. The experiment in a line: co-IP; HEK293T cells transfected at once with the plasmids of 3DDK-tagged EML1 and mKate-tagged NUDC; co-IP and blot with anti-DDK and anti-mKate antibodies.

As to “NUDC (nuclear distribution C), found in the EML1-IP product (from UniProt Q9Y266 1-331)”, the binding result in assay [1] is “binds”.

“NUDC-mKate fusion protein (nuclear distribution gene C, mouse) (from UniProt O35685 1-332)”: the binding entry in assay [2] is “binds”.
